These are yes or no findings as the source states them, for the method shown. Some entries that bind do so weakly or less than the wild type.
Molecular target: His6-T7-HSV tagged full-length V0c-subunit (rat) (UniProt P63081)
Experiment: SPR; HSV-V0c captured on anti-HSV antibodies (CMDP chip); solubilized rat brain LP1 proteins diluted 5-fold in 25 mM Tris-HCl pH 7.4, 150 mM NaCl, 0.2% CHAPS injected; bound proteins detected by injecting monoclonal antibodies; control flow cell subtracted; only the target purified

Amino acid sequences for entries named in this document (tags omitted).
UniProt P63081: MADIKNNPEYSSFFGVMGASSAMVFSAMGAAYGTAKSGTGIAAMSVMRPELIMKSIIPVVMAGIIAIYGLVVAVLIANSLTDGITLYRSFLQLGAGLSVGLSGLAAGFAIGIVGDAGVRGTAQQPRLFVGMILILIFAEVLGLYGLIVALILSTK

binding: binds
B1: complexin 2 (native, rat brain extract) (protein, UniProt P84087 1-134)
chain: MDFVMKQALGGATKDMGKMLGGEEEKDPDAQKKEEERQEALRQQEEERKAKHARMEAEREKVRQQIRDKYGLKKKEEKEAEEKAALEQPCEGSLTRPKKAIPAGCGDEEEEEEESILDTVLKYLPGPLQDMFKK

Source: PMC10001230, “A Role for the V0 Sector of the V-ATPase in Neuroexocytosis: Exogenous V0d Blocks Complexin and SNARE Interactions with V0c” (Cells, 2023)
